Source: paper PMC8860586
For part of these data: Negatives hold for the conditions tested. For part of these data: The comparison behind a weaker result is the experiment's own reference, which may not be listed here. For part of these data: At least one result comes from cells or an extract, where the contact may be indirect. For part of these data: For at least one entry, the source does not settle the construct or the ends of the probe.

Protein sequences, listed by entry. Tags and fused reporters are not part of them. Residues count along the entry.
UniProt P08670, 2-466: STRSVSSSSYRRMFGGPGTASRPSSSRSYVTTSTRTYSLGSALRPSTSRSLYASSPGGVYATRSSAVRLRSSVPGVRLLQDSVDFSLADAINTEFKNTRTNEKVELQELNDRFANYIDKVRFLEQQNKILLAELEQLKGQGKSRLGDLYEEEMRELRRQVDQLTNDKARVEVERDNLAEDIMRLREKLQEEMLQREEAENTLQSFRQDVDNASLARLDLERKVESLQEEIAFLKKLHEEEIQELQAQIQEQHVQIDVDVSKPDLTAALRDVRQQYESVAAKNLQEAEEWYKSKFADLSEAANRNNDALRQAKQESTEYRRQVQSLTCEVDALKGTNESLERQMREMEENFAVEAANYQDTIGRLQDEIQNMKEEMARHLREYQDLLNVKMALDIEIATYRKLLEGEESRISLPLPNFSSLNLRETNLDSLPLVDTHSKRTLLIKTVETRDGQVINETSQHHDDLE

Assays:
[1] = molecular target: Vimentin (HGC-27 nuclear extract) (Homo sapiens) (UniProt P08670); test: pull-down; conditions: 100 mM KCl, poly[dA-dT], no vimentin enrichment in last fraction, protein in an extract, label: 5'-biotin (KIT2KIT* strand)
Vimentin (Homo sapiens) = Vimentin (Homo sapiens) (UniProt P08670); test: EMSA; conditions: commercial protein
[2] = molecular target: Vimentin (HGC-27 nuclear extract) (Homo sapiens) (UniProt P08670); test: pull-down, LC-MSE; conditions: 100 mM KCl, poly[dA-dT], eluted only by boiling in Laemmli buffer, protein in an extract, label: 5'-biotin, folded or branched DNA
[3] = 150 mM KCl, pH 8.4, poorly defined complex

CGGGCGGGCGCGAGGGAGGGGAGGCGAGGAGGGGCGTGGCCGGC (double strand) [biotin-ds KIT2KIT*]
binding result [1]: no binding

CGGGCGGGCGCGAGGGAGGGGAGGCGAGGAGGGGCGTGGCCGGC (double strand) [ds KIT2KIT*]
binding result (Vimentin (Homo sapiens); [3]): binds more weakly
binding result (Vimentin (Homo sapiens); no KCl, pH 8.4): binds

CGGGCGGGCGCGAGGGAGGGGAGGCGAGGAGGGGCGTGGCCGGC [biotin-KIT2KIT*]
binding result [2]: binds

TGGCCCTGGTGGGCGGAGGCAAAGGGGGAGCCAGGGGCGGAGAAAGGGT [G-rich noG4]
binding result (Vimentin (Homo sapiens); 150 mM KCl, pH 8.4, single-stranded DNA): no binding

TTAGGGTTAGGGTTAGGGTTAGGGTTAGGGTTAGGGTTAGGGTTAGGG (double strand) [ds 2TEL]
binding result (Vimentin (Homo sapiens); [3]): binds more weakly
